For one compound, MIC results are on record in patent publication US20140294925A1 (priority 2013, published 2014).

The test system of this assay is Enterococcus faecium ATCC700221 (VRE). The experiment in a line: MIC/FIC/FICI determination, MHB broth microdilution (CLSI M07-A9). It counts as cell-based.

The MIC is the smallest concentration in the dilution series that meets the test's criterion for growth inhibition.

Each structure is given as a SMILES string.

As for `CN[C@H](CC(C)C)C(=O)N[C@H]1C(=O)N[C@@H](CC(N)=O)C(=O)N[C@H]2C(=O)N[C@H]3C(=O)N[C@H](C(=O)N[C@H](C(=O)O)c4cc(O)cc(O)c4-c4cc3ccc4O)[C@H](O)c3ccc(c(Cl)c3)Oc3cc2cc(c3O[C@@H]2O[C@H](CO)[C@@H](O)[C@H](O)[C@H]2O[C@H]2C[C@](C)(N)[C@H](O)[C@H](C)O2)Oc2ccc(cc2Cl)[C@H]1O` [vancomycin], the MIC by setting is: (24 h) > 32 µg/mL; (48 h) > 32 µg/mL.
